Results are given in words; binding and its absence hold for the method and conditions named. In cells and extracts the contact can be indirect. Some entries that bind do so weakly or less than the wild type. For some of these results: Sequences can lack the tags named with a protein.

Chains of the proteins cited; added tags and fusions are not shown.
UniProt P61086: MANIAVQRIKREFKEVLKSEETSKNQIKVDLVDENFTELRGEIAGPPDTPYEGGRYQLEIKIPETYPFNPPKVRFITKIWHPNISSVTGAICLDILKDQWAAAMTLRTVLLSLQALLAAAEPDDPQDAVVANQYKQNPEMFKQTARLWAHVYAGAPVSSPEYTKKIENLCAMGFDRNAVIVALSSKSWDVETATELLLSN

Common to all, as to experiment: co-IP
In test [1] the target is T1, ERLIN1-FLAG (UniProt O75477).
T1 sequence: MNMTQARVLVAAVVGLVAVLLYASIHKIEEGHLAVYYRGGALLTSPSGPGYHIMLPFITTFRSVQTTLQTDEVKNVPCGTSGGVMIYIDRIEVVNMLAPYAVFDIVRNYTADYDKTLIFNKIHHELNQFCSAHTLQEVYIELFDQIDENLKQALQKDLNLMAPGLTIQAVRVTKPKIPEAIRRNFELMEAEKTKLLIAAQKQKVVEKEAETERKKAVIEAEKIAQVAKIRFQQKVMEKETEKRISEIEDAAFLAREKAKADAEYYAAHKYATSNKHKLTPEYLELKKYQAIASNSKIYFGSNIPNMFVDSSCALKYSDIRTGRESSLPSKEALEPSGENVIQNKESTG

Test [2] addresses T2, PORCN-FLAG (UniProt Q9H237).
T2 sequence: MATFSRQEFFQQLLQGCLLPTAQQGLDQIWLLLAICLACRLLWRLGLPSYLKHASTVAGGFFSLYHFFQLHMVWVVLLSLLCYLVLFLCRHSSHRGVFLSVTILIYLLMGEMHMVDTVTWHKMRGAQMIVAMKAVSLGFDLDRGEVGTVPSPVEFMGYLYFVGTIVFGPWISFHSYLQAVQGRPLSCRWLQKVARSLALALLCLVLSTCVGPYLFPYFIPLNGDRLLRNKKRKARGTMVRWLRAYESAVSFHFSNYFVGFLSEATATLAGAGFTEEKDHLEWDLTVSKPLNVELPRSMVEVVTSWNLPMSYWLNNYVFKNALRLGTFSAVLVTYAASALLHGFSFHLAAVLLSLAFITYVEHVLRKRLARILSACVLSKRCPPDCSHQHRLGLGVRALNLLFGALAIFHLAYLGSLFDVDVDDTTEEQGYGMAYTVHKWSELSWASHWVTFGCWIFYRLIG

The target of test [3] is FLAG-UBE2K (UniProt P61086).
Test [4] addresses T3, UBXN4-FLAG (UniProt Q92575).
T3 sequence: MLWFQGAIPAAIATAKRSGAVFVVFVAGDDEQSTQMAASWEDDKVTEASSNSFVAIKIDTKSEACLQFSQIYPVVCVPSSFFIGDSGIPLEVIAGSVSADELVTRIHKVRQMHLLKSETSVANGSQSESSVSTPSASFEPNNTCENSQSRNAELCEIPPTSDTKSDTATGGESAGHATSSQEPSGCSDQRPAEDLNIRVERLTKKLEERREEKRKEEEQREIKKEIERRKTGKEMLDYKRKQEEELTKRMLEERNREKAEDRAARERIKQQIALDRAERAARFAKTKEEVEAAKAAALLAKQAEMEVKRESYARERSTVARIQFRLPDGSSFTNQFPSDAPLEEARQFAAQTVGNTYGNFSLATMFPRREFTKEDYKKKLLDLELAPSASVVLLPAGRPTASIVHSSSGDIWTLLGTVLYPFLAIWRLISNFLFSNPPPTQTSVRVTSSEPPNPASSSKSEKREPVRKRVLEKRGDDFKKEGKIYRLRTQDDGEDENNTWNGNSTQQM

In test [5] the target is T4, FAF2-FLAG (UniProt Q96CS3).
T4 sequence: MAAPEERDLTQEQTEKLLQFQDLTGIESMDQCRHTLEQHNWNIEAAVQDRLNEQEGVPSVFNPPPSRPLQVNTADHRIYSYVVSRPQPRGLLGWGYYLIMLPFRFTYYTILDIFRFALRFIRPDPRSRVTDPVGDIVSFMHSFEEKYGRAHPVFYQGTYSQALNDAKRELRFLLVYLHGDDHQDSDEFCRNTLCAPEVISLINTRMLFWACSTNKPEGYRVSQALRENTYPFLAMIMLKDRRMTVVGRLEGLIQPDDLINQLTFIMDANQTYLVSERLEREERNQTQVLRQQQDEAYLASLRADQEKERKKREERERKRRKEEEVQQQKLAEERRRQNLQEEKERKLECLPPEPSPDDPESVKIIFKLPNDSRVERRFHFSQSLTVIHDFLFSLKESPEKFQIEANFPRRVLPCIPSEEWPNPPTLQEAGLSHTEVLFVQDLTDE

Test [6] addresses T5, ERLIN2-FLAG (UniProt O94905).
T5 sequence: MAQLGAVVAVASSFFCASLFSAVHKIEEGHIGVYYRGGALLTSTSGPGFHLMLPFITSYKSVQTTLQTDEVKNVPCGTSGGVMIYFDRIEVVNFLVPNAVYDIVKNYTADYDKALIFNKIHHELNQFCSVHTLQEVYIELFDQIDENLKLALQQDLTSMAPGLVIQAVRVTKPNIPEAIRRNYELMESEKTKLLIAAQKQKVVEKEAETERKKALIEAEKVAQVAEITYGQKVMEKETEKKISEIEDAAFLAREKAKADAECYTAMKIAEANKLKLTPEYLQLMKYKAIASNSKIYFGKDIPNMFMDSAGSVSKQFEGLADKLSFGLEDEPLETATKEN

For “endogenous VCP (from UniProt P55072 1-806)”, the binding result in test [1] is given as “no binding”.

B1: endogenous ERLIN2 (protein, UniProt O94905 1-339)
chain: T5 sequence
On to B1, for which, in test [2], the binding entry is reported as “binds”.

B2: endogenous EVI/WLS (protein, UniProt Q5T9L3 1-541)
chain: MAGAIIENMSTKKLCIVGGILLVFQIIAFLVGGLIAPGPTTAVSYMSVKCVDARKNHHKTKWFVPWGPNHCDKIRDIEEAIPREIEANDIVFSVHIPLPHMEMSPWFQFMLFILQLDIAFKLNNQIRENAEVSMDVSLAYRDDAFAEWTEMAHERVPRKLKCTFTSPKTPEHEGRYYECDVLPFMEIGSVAHKFYLLNIRLPVNEKKKINVGIGEIKDIRLVGIHQNGGFTKVWFAMKTFLTPSIFIIMVWYWRRITMMSRPPVLLEKVIFALGISMTFINIPVEWFSIGFDWTWMLLFGDIRQGIFYAMLLSFWIIFCGEHMMDQHERNHIAGYWKQVGPIAVGSFCLFIFDMCERGVQLTNPFYSIWTTDIGTELAMAFIIVAGICLCLYFLFLCFMVFQVFRNISGKQSSLPAMSKVRRLHYEGLIFRFKFLMLITLACAAMTVIFFIVSQVTEGHWKWGGVTVQVNSAFFTGIYGMWNLYVFALMFLYAPSHKNYGEDQSNGDLGVHSGEELQLTTTITHVDGPTEIYKLTRKEAQE
For B2, the binding entry in test [3] was “no binding”; in test [4], “binds”; in test [5], “binds”; in test [1] it was “no binding”; in test [6], “binds”.

B3: endogenous FAF2 (protein, UniProt Q96CS3 1-445)
chain: T4 sequence
Consider B3, for which the binding entry in test [4] is reported as “no binding”; in test [6], “binds”; in test [2] it was “binds”.

(Values after paper doi:10.1101/2020.12.09.417667.)
